The nature of this assay: qHTS Assay to Find Inhibitors of Chronic Active B-Cell Receptor Signaling. To be noted: ABC-DLBCL IkBa-CBG/CBR reporter, luminescence ratio (green luciferase fused to IkBa over red control in TMD8 lymphoma cells), 4 h. In outline: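 Compounds up to 46 uM were incubated four hours with TMD8 cells whose green CBG68 luciferase is fused to IkappaBalpha; red CBR luminescence normalised the signal, and concentration-effect curves were fitted to fusion, red and ratio data.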
(In general: Quantitative high-throughput screening tests each substance at several concentrations.)

[1] abbreviates: measured here: CBR red luminescence, cell number.
Setting [2] is: measured here: IkBa-CBG green luminescence.

Some of the results follow. These are further read-outs of the screen, such as a control signal, another cell line or another target. No call is given for them. Most of these compounds were active or inconclusive in the main read-out, so they are no random draw. Potencies come from curve fits of mixed quality, noted in brackets.

As a reminder, the AC50 is the concentration at which the activity in the assay is half-maximal. As for `CN1C2CCC1CC(OC(=O)CCN1CCCC1)C2` (centres undefined), the AC50 under setting [1] is 23.1 µM [rising, partial curve, poor fit]. Regarding `O=C(Nc1ccc(Cl)cc1)N1CC2CC(C1)c1cccc(=O)n1C2` (centres undefined), under setting [1], the AC50 is 0.631 µM [rising, partial curve]. As to `COc1ccc(CNCCc2c[nH]c3ccccc23)c(OC)c1C`, the AC50 under setting [1] is 14.1 µM [falling, single point]. Still for that read-out and setting: for `COc1cc2c(cc1OC)-c1c(OC)c(OC)cc3c1[C@H](C2)N(C)CC3` the value was 14.6 µM [rising, partial curve, poor fit]; for `c1cc(C2N3CCCN2CC3)ccn1` (centres undefined), 5.62 µM [rising, single point]. As for `O=C1C(=O)c2ccccc2-c2ccccc21`, the AC50 runs as follows: under setting [1], 0.562 µM [falling, full curve]; under setting [2], 0.891 µM [rising, full curve]. As to `O=C(Cn1c(=O)oc2cc(S(=O)(=O)NCc3ccccc3)ccc21)Nc1ccc(F)c(Cl)c1`, the AC50 under setting [1] is 8.91 µM [falling, partial curve, poor fit]. On the same count and under the same terms, the same measure for `C=C1C(=O)O[C@@H]2C[C@@H](C)[C@@H]3C=CC(=O)[C@@]3(C)[C@@H](OC(=O)CC(=O)O[C@H]3[C@@H]4C(=C)C(=O)O[C@@H]4C[C@@H](C)[C@@H]4C=CC(=O)[C@]43C)[C@H]12`: 1.58 µM [falling, full curve]; for `O=c1c2ccccc2nc(-c2ccco2)n1-c1ccncc1`: 1.58 µM [falling, partial curve, poor fit]; for `CNCC[C@H](Oc1ccc(C(F)(F)F)cc1)c1ccccc1`: 23.1 µM [falling, single point].

In the case of `CCCc1cnc(NCCNCC(O)COc2ccc(Cl)c(Cl)c2)nc1` (centres undefined), the AC50 under setting [1] was 11.2 µM [falling, single point]. Take `CC(=NCc1cccnc1)c1c(O)n(C2CCCCC2)c(=O)[nH]c1=O`: the AC50 is, setting by setting: under setting [1], 2.91 µM [falling, partial curve]; under setting [2], 4.11 µM [rising, partial curve, poor fit]. In the case of `CN(C)C(=S)SSC(=S)N(C)C`, the AC50 is 0.631 µM [falling, full curve, poor fit] under setting [1] and 0.631 µM [falling, partial curve, poor fit] under setting [2]. For the compound `COc1ccc2nc(NC(=O)CCc3nc(C4=CCN(C)CC4)no3)sc2c1`, the AC50 under setting [1] was 16.4 µM [falling, partial curve]. For `Nc1ccc(C(=O)N/N=C2/CN3CCC2CC3)cc1`, under setting [1], the AC50 is 2.06 µM [falling, partial curve, poor fit].

As for `O=C1C2CCCC1C(N1CCCC1)CC2` (centres undefined), the AC50 under setting [1] is 23.1 µM [rising, partial curve]. Still for that read-out and setting: the same measure for `COC(=O)CCC(=O)c1oc2ccc(Cl)cc2c1NC(=O)CCCN1C(=O)c2ccccc2C1=O`: 20 µM [rising, single point]; for `Cc1ccccc1OCCN=Cc1c(O)n(C)c(=O)n(C)c1=O`: 4.47 µM [falling, partial curve, poor fit]; for `O=C(Cc1ccccc1)OCc1ccccc1`: 2.06 µM [rising, full curve, poor fit].

`CCC(=Nc1ccc(OC)cc1OC)c1c(O)n(C)c(=O)n(C)c1=O`: the AC50 under setting [1] was 0.398 µM [falling, partial curve, poor fit]. Turning to `Cc1ccc(OCC(=O)N2CCN(CC3CC4C=CC3C4)CC2)cc1` (centres undefined), under setting [1], the AC50 was 29.1 µM [rising, single point]. The same measure, in the same setting: the same measure for `O=c1[nH]c(=O)n(Cc2ccccc2)c(O)c1/C=C1\C=Nc2ccccc21`: 31.6 µM [rising, single point]; for `Cc1ccc(-c2noc(=O)n2CC(=O)Nc2ccc(S(=O)(=O)NC3CC3)cc2)cc1`: 3.26 µM [rising, single point]; for `O=C(Nc1ccc(Cl)c(Cl)c1)c1ccco1`: 12.6 µM [falling, partial curve]. Same read-out and setting: for `C=CCN1C(=O)NC(=O)/C(=C\c2ccc(-c3ccccc3[N+](=O)[O-])o2)C1=O` the value was 25.1 µM [rising, single point]; for `CCc1cc2c(s1)N(CC(=O)OC)C(=O)CN=C2c1ccccc1OC`, 10 µM [rising, partial curve, poor fit]; for `C/C(=N\Nc1nc2ccccc2c(=O)n1O)c1ccco1`, 1.58 µM [falling, full curve, poor fit]. Same read-out and setting: the same measure for `O=c1[nH]c(=S)[nH]c(O)c1N=Nc1ccc(SC(F)F)cc1`: 7.08 µM [falling, partial curve]. As to `Cn1nc(-c2ccc(OCC(=O)N3CCN(Cc4ccccc4)CC3)cc2)c2ccccc2c1=O`, the AC50 is 5.17 µM [falling, single point] under setting [1] and 3.66 µM [rising, partial curve, poor fit] under setting [2]. Turning to `CCCCCC[N+](=O)[O-]`, under setting [1], the AC50 was 32.6 µM [rising, single point]. On the same count and under the same terms, for `O=c1ccc2cc(O[C@@H]3O[C@@H](CO)[C@H](O)[C@@H](O)[C@@H]3O)c(O)cc2o1` the value was 8.91 µM [rising, partial curve]. Same read-out and setting: the same measure for `CN1[C@@H]2CC[C@H]1CC(OC1c3ccccc3CCc3ccccc31)C2` (some centres undefined): 25.9 µM [falling, single point]; for `O=C(Cn1c(=O)oc2ccccc21)Nc1ccc(Br)cc1`: 3.98 µM [falling, partial curve, poor fit]; for `COC(=O)C1=CO[C@@H](C)[C@@H]2CN3CC[C@@]4(C(=O)Nc5ccccc54)[C@@H]3C[C@H]12`: 6.51 µM [falling, partial curve, poor fit]. Take `O=C(C1CCC(=O)N1C1CCCCC1)N1CCC2(CC1)OCCO2` (centres undefined): the half-maximal activity concentration (AC50) under setting [1] is 2.24 µM [rising, partial curve, poor fit]. Same read-out and setting: for `CCOc1ccc(C(=O)OC2CC3CCC(C2)N3C)cc1` (centres undefined) the value was 11.2 µM [rising, partial curve, poor fit]. Still for that read-out and setting: the same measure for `COc1ccc(NC(=O)N2CCC3(CC2)OCCO3)c(OC)c1`: 0.447 µM [rising, full curve, poor fit]; for `C=CCN=C(SCC(=O)c1ccc(Cl)cc1)c1c(O)n(C)c(=O)n(C)c1=O`: 11.2 µM [falling, single point]. Take `COc1cc2c(c(OC)c1OC)-c1ccc(O)c(=O)cc1[C@@H](NC(C)=O)CC2`: the AC50 runs as follows: under setting [1], 23.1 µM [rising, partial curve]; under setting [2], 20.6 µM [falling, single point].

For the origin of these results see PubChem BioAssay AID493014 (National Center for Advancing Translational Sciences (NCATS), 2011).
